PubChem BioAssay AID686937, Drosophila RNAi Screening Center – 2013

- Aim: 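Knock-downs that reduce output of a secreted reporter enzyme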 (primary screen)
- Cell system: Drosophila S2 cells expressing secreted horseradish peroxidase
- Reagent: long dsRNA against Drosophila genes
- Duration: about 5.5 days (5 days dsRNA, then 12 h reporter induction)
- Challenge: reporter expression induced after 5 days of dsRNA, read 12 h later; inducer not stated
- Measured: 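After 5 days of dsRNA and 12 h of reporter induction, medium peroxidase read by chemiluminescence and scored as per-plate z-score; higher values mean more reporter released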
- Scale: z-score: higher = more reporter secreted into medium
The deposit covers about 23,000 reagents; this is an unselected part of those that have a named target and a result. 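Reduced-secretion tags in replicate 1 do not always agree with the z-scores; no criterion for assigning the tags was given.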 A plus sign joins genes that one reagent is predicted to hit. Not all columns of the deposit are shown. Not given: the amount of reagent.

z-score, replicate 1, by gene and reagent
U2af50: DRSC20297 -2.19; DRSC22867 1.49
CG42326: DRSC06483 0.2; DRSC06484 0.21
CG3294: DRSC00590 0.26
pho: DRSC17219 0.49
CG7173: DRSC11812 -1.33
obst-A: DRSC20543 0.26
CG43288: DRSC17314 -0.55
Rabex-5: DRSC08628 0.27
Or30a: DRSC03385 0.37
Strica: DRSC04920 0.41
CG5721: DRSC06945 0.07
ImpL2: DRSC08666 0.76
CG33922: DRSC00050 0.65
sov: DRSC17930 0.36
Ipo9: DRSC16813 0.25
CG7884: DRSC20065 0.4
CG6839: DRSC10723 0.34
GstT3: DRSC20541 -0.48
Trf4: DRSC00729 0.42
CG15254: DRSC01870 -0.02; DRSC21765 -0.38
Ranbp16 + Lcch3: DRSC20257 0.5
eIF3d1: DRSC16938 -0.01
CG32846: DRSC08012 0.36
CG10462: DRSC02058 0.56
l(3)72Dn: DRSC10468 0.26
CG9135: DRSC03144 0.07
nur: DRSC01342 0.73
Nach: DRSC07478 -1.25
RpL24: DRSC03185 -2.84
CG14107: DRSC10110 -0.5
Gen: DRSC09679 0.09
SCOT: DRSC08186 0.28
Fancl: DRSC14550 0.54
CG6191: DRSC05938 0.3
CG33093: DRSC15775 -1.04
CG30151: DRSC05888 -0.26
Spc25: DRSC14164 -1.67
CG3107: DRSC04888 0.32
CG17169: DRSC20905 -0.51
PolA2: DRSC16641 0.02
scf: DRSC08735 0.15
Alp4: DRSC14116 -0.04
CG13931: DRSC08400 0.42
glob1: DRSC16959 -0.02
Gr64b + Gr64c: DRSC08444 0.72; DRSC08445 0.53
Ran: DRSC20364 -4.92
CG5565: DRSC00690 0.19
DIP-epsilon: DRSC00932 0.7; DRSC02313 0.05
Alr: DRSC19469 0.33
CG11241: DRSC11641 -0.01; DRSC22165 -0.97

Taken from above:
RpL24 [DRSC03185], z-score, replicate 1: -2.84
For “z-score, replicate 1”, glob1 [DRSC16959] reads -0.02
Result for Fancl [DRSC14550] under “z-score, replicate 1”: 0.54
Rabex-5 [DRSC08628], z-score, replicate 1 → 0.27
